Among all 390,000 compounds or so, about 910 (0.23%) were called active. Inconclusive means that the source gave no clear call. Such entries were picked first, then a sample of the others. Calls follow the shape of the dose curve; as a rule, active = well fitted inhibition curve with a large enough effect; inconclusive = small, poorly fitted or top-dose-only effect; inactive = no such curve, though single readings can be large or run the other way. Potencies beside an inconclusive call are fits to weak or partial responses and may not hold up.
Biological target: Ubiquitin carboxyl-terminal hydrolase 1 (Homo sapiens) (UniProt O94782)
Test: Inhibitors of USP1/UAF1: Primary Screen; also: nearly all actives have a fitted effect of over 60% in size
Settings: recombinant USP1/UAF1, Ub-Rhodamine cleavage fluorescence; activity change, negative = inhibition: at 57.1 µM (top of the series)
Summary of the method: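 Step one: compound is pinned into 1nM USP1/UAF1 in HEPES pH 7.8 buffer with TCEP. Step two: 15 min room-temperature incubation. Step three: Ub-Rho (150nM final) starts cleavage, tracked by fluorescence over six one-minute reads.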
% is scaled to controls: 0 for no effect and ±100 for the full control effect; potency is read from the fitted curve at half-maximal effect.

The chains behind the UniProt entries cited, without tags or fusion partners. Where a name states a change or a piece, a line headed by the entry shows the natural chain unless it says otherwise.
UniProt O94782: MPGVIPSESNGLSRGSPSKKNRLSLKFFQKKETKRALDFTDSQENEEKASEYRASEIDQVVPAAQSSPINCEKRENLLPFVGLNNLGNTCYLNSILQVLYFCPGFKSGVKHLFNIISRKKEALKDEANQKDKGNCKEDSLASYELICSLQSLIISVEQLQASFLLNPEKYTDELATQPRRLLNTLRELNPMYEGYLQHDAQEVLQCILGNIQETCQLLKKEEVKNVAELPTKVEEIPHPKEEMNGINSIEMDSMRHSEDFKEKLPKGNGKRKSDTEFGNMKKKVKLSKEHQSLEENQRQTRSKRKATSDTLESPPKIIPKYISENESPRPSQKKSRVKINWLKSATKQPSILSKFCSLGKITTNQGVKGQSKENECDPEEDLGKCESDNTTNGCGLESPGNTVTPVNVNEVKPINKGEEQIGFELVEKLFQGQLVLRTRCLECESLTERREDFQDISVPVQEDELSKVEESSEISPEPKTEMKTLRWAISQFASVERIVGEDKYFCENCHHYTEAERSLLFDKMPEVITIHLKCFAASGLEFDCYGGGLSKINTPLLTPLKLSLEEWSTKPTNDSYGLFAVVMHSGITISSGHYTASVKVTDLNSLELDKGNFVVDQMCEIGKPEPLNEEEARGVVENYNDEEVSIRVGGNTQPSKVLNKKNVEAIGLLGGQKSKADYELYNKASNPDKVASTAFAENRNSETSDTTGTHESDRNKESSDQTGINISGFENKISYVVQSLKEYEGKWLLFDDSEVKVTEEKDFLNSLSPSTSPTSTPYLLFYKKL

| SMILES | Potency | activity change, negative = inhibition |
| --- | --- | --- |
| CCC(=O)Nc1ccc(S(=O)(=O)Nc2ccccn2)cc1 | inconclusive: 5.62 µM [inhibitor, single point] |  |
| Cc1cc(OCC(=O)Nc2ccc(N3CCN(C(=O)c4ccco4)CC3)cc2)cc(C)c1Cl | inconclusive: 31.6 µM [inhibitor, partial curve] |  |
| COC(=O)c1ccc2c(c1)NC(=O)C1CCCN21 (centres undefined) | inconclusive: 28.2 µM [inhibitor, partial curve] |  |
| CCOC(=O)N1CCN(C2=CC(=O)OC23CCCCC3)CC1 | inconclusive: 15.8 µM [inhibitor, partial curve] |  |
| COc1ccc(OC)c(CNC(=O)c2ccc(N3Cc4ccccc4Oc4ncccc43)s2)c1 |  | inactive: 0.263% |
| Cc1onc(-c2ccccc2Cl)c1C(=O)NCC1CCCO1 (centres undefined) | inconclusive: 112 µM [inhibitor, partial curve, poor fit] |  |
| CCN(CC)c1ncnc2c1cnn2-c1cc(Cl)ccc1C | inconclusive: 0.794 µM [inhibitor, full curve] |  |
| COc1ccc(CC(=O)Nc2c(C(=O)N3CCN(c4ccccc4)CC3)oc3ccccc23)cc1OC | inconclusive: 39.8 µM [inhibitor, partial curve] |  |
| COCCn1c(SCC(=O)Nc2cc(Cl)ccc2OC)nc2c([nH]c3ccccc32)c1=O | inconclusive: 0.126 µM [inhibitor, full curve, poor fit] |  |
| COC(=O)C(Cc1ccccc1)NC(=O)CCNC(=O)c1ccc(Br)cc1 (centres undefined) | inconclusive: 44.7 µM [inhibitor, partial curve, poor fit] |  |
| O=C(CCCn1c2ccccc2c(=O)c2ccccc21)Nc1cccc(Cl)c1 | inconclusive: 39.8 µM [inhibitor, partial curve] |  |
| Cc1ccccc1NC(=O)CC(NCc1cccnc1)C(=O)O (centres undefined) | inconclusive: 22.4 µM [inhibitor, partial curve] |  |
| CCCn1c(N)c(N(CCOC)C(=O)c2cccc(Cl)c2)c(=O)[nH]c1=O | inconclusive: 0.708 µM [inhibitor, full curve] |  |
| CCOC(=O)c1ccc(NC(=O)c2cnc3c(-c4ccc(F)cc4)c(C)nn3c2C)cc1 | inconclusive: 3.98 µM [inhibitor, partial curve] |  |
| Cc1cc(C)n(-c2nc3ccccc3nc2Nc2ccc(N(C)C)cc2)n1 | inconclusive: 50.1 µM [inhibitor, partial curve] |  |
| COc1ccc(NC(=O)C2CCN(C(=O)C3CC(=O)N(c4ccc(C)cc4)C3)CC2)cc1 (centres undefined) | inconclusive: 39.8 µM [inhibitor, single point] |  |
| CCc1ccc(N2CC(C(=O)N/N=C/c3ccccc3)CC2=O)cc1 (centres undefined) | inconclusive: 1.26 µM [inhibitor, full curve] |  |
| CCNc1cc(O)ccc1C | inconclusive: 70.8 µM [inhibitor, partial curve, poor fit] |  |
| COc1cc(NC(=O)c2cc(C3CC3)nc3c2c(C)nn3-c2ccccc2)cc(OC)c1 | inconclusive: 44.7 µM [inhibitor, partial curve, poor fit] |  |
| Cc1ccccc1N1CCN(S(=O)(=O)c2nnc(NC(=O)c3ccc(C(C)C)cc3)s2)CC1 |  | inactive: -3.74% |

| SMILES | Potency | activity change, negative = inhibition |
| --- | --- | --- |
| Clc1ccc(OCc2nc(-c3ccccn3)no2)c(Br)c1 | inconclusive: 70.8 µM [inhibitor, partial curve, poor fit] |  |
| CC(OC(=O)Cn1nnc2ccccc21)C(=O)NC1CCCC1 (centres undefined) | inconclusive: 50.1 µM [inhibitor, partial curve, poor fit] |  |
| CN(CC(=O)NCc1cccs1)S(=O)(=O)c1cccc2cccnc12 |  | inactive: -2.08% |
| Cc1cccc(N(C)c2nc3ccccc3c3nnc(C)n23)c1 |  | inactive: -15.8% |
| Cc1ccc(S(=O)(=O)N(C)C[C@@H]2OCCCC[C@H](C)Oc3ccc(NC(=O)Nc4ccc(F)cc4)cc3C(=O)N([C@H](C)CO)C[C@H]2C)cc1 | inconclusive: 0.447 µM [inhibitor, full curve, poor fit] |  |
| O=C(NN=Cc1c(O)ccc2ccccc12)c1ccncc1 | inconclusive: 28.2 µM [inhibitor, single point] |  |
| CCOc1ccccc1NC(=O)CSC1=NN2CCCC(=O)N=C2S1 | inconclusive: 31.6 µM [inhibitor, partial curve] |  |
| Cc1cccc(-c2cc(=O)c(C(=O)O)cn2-c2ccc(F)cc2F)c1 | inconclusive: 25.1 µM [inhibitor, partial curve] |  |
| CC(=O)Nc1ccc(Sc2ncccc2C(=O)Nc2cc(Cl)cc(Cl)c2)cn1 | inconclusive: 39.8 µM [inhibitor, single point] |  |
| CCn1c2ccccc2c2cc(NC(=O)c3ccccc3-c3ccccc3C(=O)O)ccc21 | inconclusive: 44.7 µM [inhibitor, partial curve, poor fit] |  |
| COc1ccc(C2CC(c3cccc(Br)c3)=NN2c2ccc(S(N)(=O)=O)cc2)cc1 (centres undefined) | inconclusive: 79.4 µM [inhibitor, partial curve, poor fit] |  |
| CCc1ccc(CNC(=O)c2cnc3sc(N4CCCC4)nn3c2=O)cc1 | inconclusive: 1 µM [inhibitor, full curve, poor fit] |  |
| Cc1ccc(Cl)cc1NC(=O)C1CCN(c2nnc(C)c3c(C)n(-c4ccccc4)nc23)CC1 |  | inactive: 1.34% |
| COc1ccccc1C(=O)Nc1ccccc1OCc1cc(=O)n2c(C)csc2n1 | inconclusive: 39.8 µM [inhibitor, partial curve] |  |
| CC1=NN(c2ccccc2)C(=O)/C1=C\C=C1/N(C)c2ccccc2C1(C)C | inconclusive: 28.2 µM [inhibitor, partial curve] |  |
| Cc1ncc(CO)c2c1Oc1nc(-c3ccccc3F)nc(SCC(=O)N(C)c3ccccc3)c1C2 | inconclusive: 28.2 µM [inhibitor, partial curve] |  |
| CCOc1cc(S(=O)(=O)Nc2ncn[nH]2)ccc1Br |  | inactive: -9.69% |
| CCCc1cc(=O)[nH]c(SCC(=O)N2CCN(c3ccccc3)CC2)n1 | inactive |  |
| COc1ccc(Nc2ccc3c(c2)=NC2(CCCCC2)[N+]=3[O-])cc1 | inconclusive: 31.6 µM [inhibitor, partial curve] |  |

Entries listed so far that have an aryl methoxy group, in the order listed:

| SMILES | Potency | activity change, negative = inhibition |
| --- | --- | --- |
| COc1ccc(OC)c(CNC(=O)c2ccc(N3Cc4ccccc4Oc4ncccc43)s2)c1 |  | inactive: 0.263% |
| COc1ccc(CC(=O)Nc2c(C(=O)N3CCN(c4ccccc4)CC3)oc3ccccc23)cc1OC | inconclusive: 39.8 µM [inhibitor, partial curve] |  |
| COCCn1c(SCC(=O)Nc2cc(Cl)ccc2OC)nc2c([nH]c3ccccc32)c1=O | inconclusive: 0.126 µM [inhibitor, full curve, poor fit] |  |
| COc1ccc(NC(=O)C2CCN(C(=O)C3CC(=O)N(c4ccc(C)cc4)C3)CC2)cc1 (centres undefined) | inconclusive: 39.8 µM [inhibitor, single point] |  |
| COc1cc(NC(=O)c2cc(C3CC3)nc3c2c(C)nn3-c2ccccc2)cc(OC)c1 | inconclusive: 44.7 µM [inhibitor, partial curve, poor fit] |  |
| COc1ccc(C2CC(c3cccc(Br)c3)=NN2c2ccc(S(N)(=O)=O)cc2)cc1 (centres undefined) | inconclusive: 79.4 µM [inhibitor, partial curve, poor fit] |  |
| COc1ccccc1C(=O)Nc1ccccc1OCc1cc(=O)n2c(C)csc2n1 | inconclusive: 39.8 µM [inhibitor, partial curve] |  |
| COc1ccc(Nc2ccc3c(c2)=NC2(CCCCC2)[N+]=3[O-])cc1 | inconclusive: 31.6 µM [inhibitor, partial curve] |  |

— PubChem BioAssay AID743255 (National Center for Advancing Translational Sciences (NCATS), 2014)
